{"source": "paper PMC10899256", "key": {"[1]": {"target": "T1, GFP-tagged LKB1 F354A (1–433) (human) (UniProt Q15831)", "T1 sequence": "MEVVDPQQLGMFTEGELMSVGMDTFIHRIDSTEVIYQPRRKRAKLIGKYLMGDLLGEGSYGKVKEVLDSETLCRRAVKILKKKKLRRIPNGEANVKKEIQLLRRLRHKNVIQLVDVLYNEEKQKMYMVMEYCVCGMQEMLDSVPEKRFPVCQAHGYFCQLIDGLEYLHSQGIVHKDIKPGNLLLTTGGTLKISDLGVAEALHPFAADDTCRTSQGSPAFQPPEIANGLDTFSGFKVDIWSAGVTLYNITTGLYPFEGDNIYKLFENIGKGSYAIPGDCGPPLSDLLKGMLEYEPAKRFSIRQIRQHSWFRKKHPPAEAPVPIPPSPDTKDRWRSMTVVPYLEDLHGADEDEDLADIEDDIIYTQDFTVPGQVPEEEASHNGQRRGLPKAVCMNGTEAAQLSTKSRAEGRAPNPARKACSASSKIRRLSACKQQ", "experiment": "co-IP; transfected HEK293T; lysate in NETN buffer, GFP beads 2 h at 4 °C, immunoblot"}, "[2]": {"target": "T2, GFP-tagged LKB1 WT (1–433) (human) (UniProt Q15831)", "T2 sequence": "T1 sequence with A354F", "experiment": "co-IP; transfected HEK293T; lysate in NETN buffer, GFP beads 2 h at 4 °C, immunoblot"}, "[3]": {"target": "T3, GFP-tagged LKB1 F354L (1–433) (human) (UniProt Q15831)", "T3 sequence": "T1 sequence with A354L", "experiment": "co-IP; transfected HEK293T; lysate in NETN buffer, GFP beads 2 h at 4 °C, immunoblot"}, "[4]": {"target": "T4, Flag-LKB1 (full-length LKB1) (human) (UniProt Q15831)", "T4 sequence": "T1 sequence with A354F", "experiment": "co-IP; co-transfected HEK293T; lysate in NETN buffer, anti-Flag Affinity Gel overnight at 4 °C, immunoblot"}}, "note": "Where a chain is given by its changes, count along the chain named. Results are given in words; binding and its absence hold for the method and conditions named. In cells and extracts the contact can be indirect. Some results given as binding are weak or reduced against the parent protein; the word gives no strength. Tags and fused reporters may be left off the sequences shown."}
{"substance": "TBC1D23 co-precipitated with GFP-tagged LKB1 (Fig. 8a) (from UniProt Q9NUY8 1-699)", "values": [{"measurement": "binding", "setting": "[1]", "result": "binds"}, {"measurement": "binding", "setting": "[2]", "result": "binds"}, {"measurement": "binding", "setting": "[3]", "result": "binds"}]}
{"substance": "mCherry-TBC1D23 WT (from UniProt Q9NUY8-2 1-684)", "values": [{"measurement": "binding", "setting": "[4]", "result": "binds"}]}
{"substance": "GST-TBC1D23 PH (PH domain, residues 545–684), expressed in HEK293T (from UniProt Q9NUY8-2 545-684) (domain or fragment)", "values": [{"measurement": "binding", "setting": "[4]", "result": "binds"}]}
